As usually defined, the AC50 is the concentration at which the activity in the assay is half-maximal. Low values mean activity at low concentration, high ones activity only at high concentration.

This assay is described as follows: qHTS Assay for Lipid Storage Modulators in Drosophila S3 Cells.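 For cell number change: cells counted by Cell Tracker Red CMTPX staining in the red channel.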 Conditions: BODIPY lipid droplet fluorescence, 18-24 h; for cell number change: measured here: cell count max response, cells fed with added oleic acid. The procedure, abridged:
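Drosophila S3 cells loaded with oleic acid (400 uM, as added) and compounds at several concentrations; lipid droplets imaged by 488-nm laser-scanning cytometry, 500–530 nm intensity and object ratio to cell channel. Percent activity normalized to 20 uM Triacsin C.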
(qHTS replaces the single test concentration by a dilution series.)

The mark [1] stands for this setting: measured here: cell number channel AC50, cells fed with added oleic acid.
The mark [2] stands for this setting: measured here: lipid fluorescence (Fed channel) AC50, cells fed with added oleic acid.

The other results are listed elsewhere or left out. The main result of the screen is listed elsewhere. These columns were measured beside it and carry no call. Most of these compounds were active or inconclusive in the main read-out, so they are no random draw. Potencies come from curve fits of mixed quality, noted in brackets.

Consider `O=[N+]([O-])c1ccc(N2CCOCC2)cc1NC(c1ccccc1)c1ccccc1`, for which the cell number change was -16.7%. Also, the AC50 under setting [1] is 0.651 µM [falling, single point]. The AC50 under setting [2] is 0.731 µM [falling, full curve, poor fit].
As for `O=C(Nc1ccc(S(=O)(=O)Nc2ccc(F)cc2)cc1)c1ccc(CN2CCOCC2)cc1`, the cell number change is -13.1%. Also, the AC50 under setting [2] is 6.51 µM [falling, single point].
Take `CN(C(=O)Cn1c(=O)oc2cc(S(=O)(=O)N3CCCC3)ccc21)C1CCCCC1`: under setting [2], the AC50 was 4.11 µM [rising, single point].
Turning to `COc1ccc(C(C)=O)cc1CN1C(=O)NC2(CCCCC2)C1=O`, the AC50 is, setting by setting: under setting [1], 5.8 µM [rising, single point]; under setting [2], 6.51 µM [rising, partial curve, poor fit].
With `CCOC(=O)C1CCN(C(=O)C(=O)c2cn(CC(=O)N3CCCCCC3)c3ccccc23)CC1`, the cell number change is -8.8%. In addition, the AC50 under setting [2] is 29.1 µM [falling, single point].
On to `CCOC(=O)c1ccc(S(=O)(=O)N2CCN(C(=O)c3nn(C)c(=O)c4ccccc34)CC2)cc1`, for which the cell number change was determined as 71.7%.
As to `CCc1ccccc1OCC(=O)Nc1cccc(S(=O)(=O)NC2=NCCCCC2)c1`, the cell number change is -8.56%. In addition, the AC50 under setting [2] was 29.1 µM [falling, single point].
`CCc1cccc2c(C(=O)CSc3nncn3-c3ccc(OC)cc3)c[nH]c12`: the cell number change came out at 34.4%. For the same compound, the AC50 under setting [1] is 14.6 µM [rising, single point].
Regarding `CCc1nnc(NC(=O)[C@@H](NC(=O)c2ccc(C(C)(C)C)cc2)C(C)C)s1`, the cell number change was -27.8%. Further, under setting [2], the AC50 was 14.6 µM [falling, partial curve].
In the case of `CCn1cc(C(=O)OCc2cccc(Br)c2)c(=O)c2ccc(C)nc21`, the cell number change came out at 106%. For the same compound, the AC50 under setting [1] is 1.16 µM [rising, full curve]. Also, under setting [2], the AC50 is 1.46 µM [rising, full curve].
Regarding `O=C1CC2(CCN(C(=O)c3c(F)cccc3F)CC2)Oc2ccccc21`, the cell number change is -49.1%. In addition, under setting [1], the AC50 was 5.8 µM [falling, full curve, poor fit]. The AC50 under setting [2] was 6.51 µM [falling, full curve, poor fit].
`O=C(Nc1nnc(C(F)(F)F)s1)c1ccc(Br)s1`: the cell number change was -41.5%. The AC50 under setting [2] is 16.4 µM [falling, partial curve, poor fit].
For `COc1ccc(OC)c(-c2cc(C(=O)Nc3c(C)nn(Cc4ccccc4Cl)c3C)no2)c1`, the cell number change is -0.348%. Moreover, under setting [2], the AC50 was 2.31 µM [rising, single point].
In the case of `COc1ccc(CCNC(=O)Cc2ccsc2)cc1`, the AC50 under setting [2] was 29.1 µM [rising, single point].
Consider `CN(C)S(=O)(=O)c1ccc(Cl)c(C(=O)NC2CCN(Cc3ccccc3)C2)c1` (stereo not drawn), for which the cell number change came to 4.2%.
Regarding `S=C(Nc1ccc2nsnc2c1)N1CCCCCC1`, the cell number change amounted to 19.2%. Moreover, under setting [2], the AC50 was 0.206 µM [falling, full curve, poor fit].
On to `COc1ccc(C(=O)C2CCCN(Cc3cccn3-c3ccc(Cl)cn3)C2)c(OC)c1` (stereo not drawn), for which the cell number change is -40.3%. Besides, the AC50 under setting [1] was 16.4 µM [falling, single point]. For the same compound, the AC50 under setting [2] is 29.1 µM [falling, single point].
For the compound `CC1(OC(=O)CCc2ccccc2)C(=O)C=C2C=C(c3ccc(C#N)cc3)N(CCN3CCOCC3)C=C2C1=O` (stereo not drawn), the cell number change was determined as 22.6%. For the same compound, the AC50 under setting [2] is 0.184 µM [rising, full curve, poor fit].
Consider `Cc1ccc2cc3c(N)c(C(=O)N4CC(=O)Nc5ccccc54)sc3nc2c1`, for which the cell number change stood at 1.15%. Under setting [2], the AC50 is 29.1 µM [falling, single point].
Take `CC(C)(C)OC(=O)CC12CCCCC1NC(=O)O2` (stereo not drawn): the cell number change is 6.8%. Moreover, under setting [2], the AC50 was 1.46 µM [rising, partial curve].
As to `O=c1cc(N2CCc3ccccc32)[nH]c(=O)n1-c1ccc(Br)cc1`, the cell number change worked out at 29.6%. Moreover, the AC50 under setting [2] is 2.06 µM [rising, partial curve, poor fit].
With `CCC(C)C(=O)N1CCc2cc(-c3csc(N)n3)ccc21` (stereo not drawn), the cell number change stood at 9.82%. For the same compound, the AC50 under setting [2] is 9.2 µM [rising, partial curve].
For `Cn1c(N2CCN(c3ccccn3)CC2)nc2c1c(=O)n(Cc1ccc(Cl)cc1)c(=O)n2C`, the cell number change is -3.35%. The AC50 under setting [2] is 0.517 µM [rising, partial curve].
Take `O=C(CSc1nnc(-c2cccnc2)o1)Nc1cccc(Cl)c1`: the cell number change worked out at 42.3%. For the same compound, under setting [1], the AC50 was 13 µM [rising, partial curve, poor fit]. Besides, the AC50 under setting [2] was 1.84 µM [falling, full curve].
With `Cc1ccc(-c2nc(=O)[nH]c3ccccc23)cc1`, the cell number change amounted to 27.5%.
Consider `O=S(=O)(c1ccccc1)N1CCC(n2cnc3ccccc32)CC1`, for which the cell number change is -5.56%.
As to `COc1cc(/C=C/c2ccc3c(Br)cc(Br)c(O)c3n2)ccc1O`, the cell number change is -26.6%. For the same compound, under setting [1], the AC50 was 2.91 µM [falling, single point]. Besides, under setting [2], the AC50 is 3.26 µM [falling, full curve].
For the compound `CCN(CC)S(=O)(=O)c1ccc(N(C)CCc2ccc(OC)c(OC)c2)nc1`, the AC50 is 0.58 µM [rising, single point] under setting [1] and 29.1 µM [rising, single point] under setting [2].
For `O=C(NCc1ccccc1)NC1(C(=O)N2CCN(c3ncccn3)CC2)CCCCC1`, the cell number change is -30.8%. Under setting [1], the half-maximal activity concentration (AC50) was 32.6 µM [falling, single point]. Under setting [2], the AC50 is 1.84 µM [falling, full curve].
Consider `CC(=O)c1ccccc1NC(=O)COC(=O)CSCC(=O)Nc1cc(C)on1`, for which the cell number change was -20.4%. Further, under setting [2], the AC50 was 8.2 µM [falling, partial curve, poor fit].
Turning to `Cc1ccc2nc(SCC(=O)Nc3cccc(S(=O)(=O)NC4=NCCCCC4)c3)[nH]c2c1`, the cell number change is -28.3%. The AC50 under setting [2] is 29.1 µM [falling, single point].
As to `CC(C)c1nc2sc3c(=S)nc[nH]c3c2c2c1CCC2`, the cell number change came to 17.9%. Further, under setting [1], the AC50 was 0.00461 µM [rising, full curve, poor fit]. Further, the AC50 under setting [2] was 0.00461 µM [rising, full curve, poor fit].
Turning to `O=C(CC(=O)NCc1ccc(Cl)cc1)NCc1ccccc1`, the cell number change is 18.1%. Moreover, the AC50 under setting [1] is 7.31 µM [rising, single point].
As to `O=C(C1CCC1)N1CCc2cc(S(=O)(=O)N3CCCCC3)ccc21`, the cell number change stood at 234%. Also, the AC50 under setting [1] is 0.146 µM [rising, single point].
As for `CCN(CC)S(=O)(=O)c1ccc(C(=O)Nc2ccc(Cc3ccncc3)cc2)cc1`, the cell number change was -41.9%. In addition, the AC50 under setting [1] was 10.3 µM [falling, partial curve]. Besides, under setting [2], the AC50 is 13 µM [falling, partial curve].

(Values after PubChem BioAssay AID2685 (National Center for Advancing Translational Sciences (NCATS), 2010).)
